Measured values reported in patent US20190038711A1, “Medicament For Treating Pulmonary Tuberculosis” (Shandong Zhonghai Pharmaceutical CO. LTD, priority 2016, published 2019).
For at least one compound, name, drawing or mass did not settle the structure.

System: airway hyperresponsiveness
Experiment: Experiment on airway hyperresponsiveness (late-phase airway response, APTI)
Format: in vivo
Details: sensitized mice, acetylcholine challenge
Procedure: According to the Above Embodiments 13-18, an Experiment on Airway Hyperresponsiveness was Conducted, with an Experimental Method and Effects being Shown Below:
(1) mice for the experiment: the male mice for this experiment were 6 weeks old;
(2) dose: the dose for each mouse was 3 g/day, 3 times a day;
(3) antigen sensitization, allergy attack and treatment: 200 μg of conalbumin (CA) and 2 mg of dinitrobenzene (DNP)-bound albumin were dissolved in 0.3 ml of buffer solution PBS and then […] injected into mice for sensitization twice at an interval of one week. The mice were anesthetized 7 days later after the second sensitization, and were intratracheally provided with 0.05 ml of buffer solution PBS containing 100 μg of conalbumin (CA) to induce an allergy attack. On the 20th day and the 30th day, a further allergy attack was induced by the same method at twice dose. The mice having an allergy attack were divided into 9 groups 24 hours later after the first allergy attack. […]
(4) measurement of late-phase airway response: on the third day after the last allergy attack, the mice of the above 8 groups were intravenously injected with acetylcholine, and then the airway pressure changes of these mice and those of group 9 were all measured to reflect airway responses. […]

With `C[C@@H]1C[C@H]2[C@@H]3CCC4=CC(=O)C=C[C@]4(C)[C@@]3(F)[C@@H](O)C[C@]2(C)[C@@]1(O)C(=O)CO` [dexamethasone] the “APTI levels compared with the model control group” value was “significantly lower than that of the model control group”.
